# Results reported in PubChem BioAssay AID1347075 (National Center for Advancing Translational Sciences (NCATS), 2019).
# Out of some 400,000 compounds screened, about 5,500 (1.4%) were called active. The shares of active, inactive and inconclusive entries below differ from those in the screen. The call rests on the fitted dose curve; in most records, active means well fitted cell-killing curve with a large enough effect; inconclusive means small, poorly fitted or top-dose-only effect, or effect the other way; inactive means flat fitted curve, though single readings scatter. Potencies beside an inconclusive call are fits to weak or partial responses and may not hold up.
# Test: qHTS assay for MDR1-selective chemotherapeutics: Primary screen using the parental adenocarcinoma cell KB-3-1; further: nearly all actives have a fitted effect of over 60% in size
# Conditions: KB-3-1 viability, CellTiter-Glo ATP luminescence, 72 h; activity change, negative = cytotoxic: at 46.1 µM (top of the series)
# Method in brief: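 Cytotoxicity in the drug-sensitive parental line KB-3-1 was scored as loss of CellTiter-Glo luminescence following 72 h incubation with compound. Values come from curve fitting of normalized concentration-response data.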
# On the % scale 0 is the no-effect control and ±100 the full control effect; potency means the concentration at half of the fitted maximal effect.
SMILES,Potency,"activity change, negative = cytotoxic"
Cc1ccnc(NC(=O)C2CCCN(S(=O)(=O)c3ccc4[nH]c(=O)ccc4c3)C2)c1 (stereo not drawn),"inconclusive: 11.6 µM [rising, partial curve, poor fit]",
O=C(N/N=C/c1ccccc1[N+](=O)[O-])c1ccc(CN2CCOCC2)cc1,inactive,
Cc1cc(C)c(-c2nnc(NC(=O)Nc3ccc4ccccc4c3)s2)c(C)c1,"inconclusive: 18.4 µM [cytotoxic, single point]",
Cc1ccc(C(=O)c2coc3c2C(=O)C(=O)c2ccccc2-3)cc1,inactive,
Cc1ccc(NC(=O)c2nc[nH]c2C(=O)Nc2ccccc2F)cc1,"inconclusive: 29.1 µM [cytotoxic, single point]",
COc1ccc(-c2nc3cnccn3c2Nc2ccc3c(c2)OCO3)cc1,"inconclusive: 14.6 µM [cytotoxic, partial curve, poor fit]",
Cn1c(=O)c2c(-c3ccccc3Br)n(CCc3ccccc3)cc2n(C)c1=O,inactive,
COc1cccc(C(O)c2nc(/C=C/c3ccc(C(F)(F)F)cc3)cs2)c1 (stereo not drawn),"inconclusive: 29.1 µM [cytotoxic, single point]",
CCN(CC)S(=O)(=O)c1cccc(NC(=O)/C=C/c2cccc([N+](=O)[O-])c2)c1,"inconclusive: 29.1 µM [cytotoxic, single point]",
CS(=O)(=O)Nc1ccc(C2=NN(C(=O)c3ccco3)C(c3ccco3)C2)cc1 (stereo not drawn),"inconclusive: 23.1 µM [cytotoxic, single point]",
CCOC(=O)C(C(=O)Nc1ccc(C)cc1)C1CCCCC1 (stereo not drawn),active: 23.1 µM,
O=S(=O)(c1ccc2ccccc2c1)N1CCN(C(=S)Nc2ccc(F)c(Cl)c2)CC1,"inconclusive: 29.1 µM [cytotoxic, single point]",
COc1ccccc1NC(=O)CSc1nnc2c3ccccc3n(C)c2n1,inactive,
CC(C)COc1ccccc1C1CC(=O)Nc2cc3c(cc21)OCO3 (stereo not drawn),active: 6.51 µM,
O=C(N/N=C/c1ccccc1[N+](=O)[O-])c1ccc(COc2ccccc2-c2ccccc2)cc1,"inconclusive: 20.6 µM [cytotoxic, single point]",
Cc1c(C(=O)NCc2ccc(Cl)c(Cl)c2)sc(=O)n1Cc1ccc(S(C)(=O)=O)cc1,"inconclusive: 29.1 µM [cytotoxic, single point]",
COCCNc1ncnc2c1cnn2Cc1ccccc1Cl,"inconclusive: 29.1 µM [cytotoxic, single point]",
Cc1ccc(S(=O)(=O)N2[C@H](CC(=O)c3ccccc3)OC[C@@H]2C(C)C)cc1,"inconclusive: 18.4 µM [cytotoxic, single point]",
Cc1ccc(S(=O)(=O)N2CCN(C(=O)[C@H](Cc3ccccc3)NC(=O)c3ccco3)CC2)cc1C,inactive,
Cc1ccc(-n2c(-c3ccco3)nc3nc4ccccc4nc32)cc1,inactive,
COc1ccccc1OCC(=O)N/N=C(\C)c1ccc2ccccc2c1,"inconclusive: 25.9 µM [cytotoxic, single point]",
CCC(Sc1nc2ncccc2[nH]1)C(=O)N1CCOCC1 (stereo not drawn),,inconclusive: 32.7%

# A second format for some results above.
SMILES	Potency	activity change, negative = cytotoxic
CS(=O)(=O)Nc1ccc(C2=NN(C(=O)c3ccco3)C(c3ccco3)C2)cc1 (stereo not drawn)	inconclusive: 23.1 µM [cytotoxic, single point]	
CCOC(=O)C(C(=O)Nc1ccc(C)cc1)C1CCCCC1 (stereo not drawn)	active: 23.1 µM	
O=S(=O)(c1ccc2ccccc2c1)N1CCN(C(=S)Nc2ccc(F)c(Cl)c2)CC1	inconclusive: 29.1 µM [cytotoxic, single point]	
COc1ccccc1NC(=O)CSc1nnc2c3ccccc3n(C)c2n1	inactive	
CC(C)COc1ccccc1C1CC(=O)Nc2cc3c(cc21)OCO3 (stereo not drawn)	active: 6.51 µM	
O=C(N/N=C/c1ccccc1[N+](=O)[O-])c1ccc(COc2ccccc2-c2ccccc2)cc1	inconclusive: 20.6 µM [cytotoxic, single point]	
Cc1c(C(=O)NCc2ccc(Cl)c(Cl)c2)sc(=O)n1Cc1ccc(S(C)(=O)=O)cc1	inconclusive: 29.1 µM [cytotoxic, single point]	
COCCNc1ncnc2c1cnn2Cc1ccccc1Cl	inconclusive: 29.1 µM [cytotoxic, single point]	
Cc1ccc(S(=O)(=O)N2[C@H](CC(=O)c3ccccc3)OC[C@@H]2C(C)C)cc1	inconclusive: 18.4 µM [cytotoxic, single point]	

# Following part

SMILES,Potency,"activity change, negative = cytotoxic"
CN1C(=O)N(CC(=O)Nc2ccc3c(c2)OCO3)C(=O)C12CCCCC2,inactive,
COc1cccc(NC(=O)CSc2nc3c(oc4ccccc43)c(=O)[nH]2)c1,inactive,
C#CCNC(=O)C[C@@H]1C[C@@]2(C(=O)OCC)CCC=C2N(Cc2ccc(Cl)cc2Cl)C1=O,inactive,
CC1=NN(c2ccccc2)C(=O)C1C(=O)C(=O)Nc1ccc(F)cc1 (stereo not drawn),inactive,
Nc1sc(-c2ccccc2)cc1-c1n[nH]c(=S)n1C1CCCCC1,"inconclusive: 2.91 µM [cytotoxic, partial curve, poor fit]",
CCCC(=O)Nc1cc(-c2nn(C)c(=O)c3ccccc23)ccc1OC,"inconclusive: 29.1 µM [cytotoxic, single point]",
O=C1/C(=C/c2c[nH]c3ccccc23)CCC/C1=C\c1c[nH]c2ccccc12,"inconclusive: 29.1 µM [cytotoxic, single point]",
CCn1c2ccccc2c2cc(/C=C3\C=Cc4ccccc43)ccc21,inactive,
CCN(C[C@H]1N[C@@](CC)(C(=O)OC)[C@H]2C(=O)N(Cc3ccccc3)C(=O)[C@@H]12)S(=O)(=O)c1ccc(C(F)(F)F)cc1,"inconclusive: 0.0082 µM [rising, full curve]",
CCCn1nc(C(=O)N2CCN(S(=O)(=O)c3ccc(C)c(C)c3)CC2)c2ccccc2c1=O,"inconclusive: 18.4 µM [cytotoxic, single point]",
COC(=O)C1(C(=O)OC)C[C@H](c2ccc(OC)cc2)N(Cc2ccccc2OC)[C@@H]1c1cccs1,"inconclusive: 16.4 µM [cytotoxic, partial curve]",
CCOC(=O)c1cc2c(c(CSc3nc4ccccc4c(=O)n3Cc3ccco3)c1)OCOC2,"inconclusive: 23.1 µM [cytotoxic, single point]",
Cc1ccc2nc3c(c(Nc4ccc(O)cc4)c2c1)CCC3,inactive,
Oc1ccc(/C=N\Nc2cc(N3CCOCC3)nc(N3CCOCC3)n2)c(O)c1,"inconclusive: 23.1 µM [cytotoxic, single point]",
CCC(=O)N(CCC(Cc1ccccc1)c1ccc2c(c1)OCO2)Cc1ccccc1F (stereo not drawn),"inconclusive: 29.1 µM [cytotoxic, single point]",
O=C1NC(=S)SC1=Cc1ccccc1Cl,"inconclusive: 29.1 µM [cytotoxic, single point]",
CCN(Cc1ccccc1)C(=O)c1cccc(S(=O)(=O)N2CCN(c3ccc(F)cc3)CC2)c1,inactive,
COc1cc(-c2cnc3c(NC=O)cc(-c4cccc(C(F)(F)F)c4)cn23)cc(OC)c1OC,"inconclusive: 25.9 µM [cytotoxic, single point]",
O=C(CCn1c(=O)oc2ccccc21)N1CCN(c2ccccc2Cl)CC1,active: 6.51 µM,
O=S1(=O)N=C(Oc2cccc3ccccc23)c2ccccc21,"inconclusive: 29.1 µM [cytotoxic, single point]",
O=C(Nc1ccc(-c2csc(Nc3cccc(C(F)(F)F)c3)n2)cc1)c1cc([N+](=O)[O-])cc(C(F)(F)F)c1,"inconclusive: 29.1 µM [cytotoxic, partial curve, poor fit]",
